Measurements from doi:10.1101/2022.06.16.496440.

Key:
[1] = target: T1, AtEDS1-nVenus (Arabidopsis) (UniProt Q9XF23); test: split reporter
T1 sequence: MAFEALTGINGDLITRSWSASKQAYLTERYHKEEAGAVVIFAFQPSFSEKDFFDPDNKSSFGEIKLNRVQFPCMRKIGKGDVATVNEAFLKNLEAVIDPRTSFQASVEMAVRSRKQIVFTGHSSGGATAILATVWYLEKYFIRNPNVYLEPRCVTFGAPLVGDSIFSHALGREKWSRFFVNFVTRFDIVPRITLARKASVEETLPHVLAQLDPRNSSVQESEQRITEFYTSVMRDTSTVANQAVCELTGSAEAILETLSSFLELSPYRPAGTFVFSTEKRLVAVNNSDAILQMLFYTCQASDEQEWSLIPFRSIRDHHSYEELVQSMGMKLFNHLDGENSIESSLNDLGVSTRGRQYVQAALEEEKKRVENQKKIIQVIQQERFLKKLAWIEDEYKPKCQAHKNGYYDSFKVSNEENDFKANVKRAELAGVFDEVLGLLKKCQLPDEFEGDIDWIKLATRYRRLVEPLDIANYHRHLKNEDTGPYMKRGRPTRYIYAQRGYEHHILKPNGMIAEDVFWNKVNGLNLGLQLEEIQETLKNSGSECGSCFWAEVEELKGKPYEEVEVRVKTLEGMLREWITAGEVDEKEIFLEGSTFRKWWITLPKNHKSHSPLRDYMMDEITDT

[2] = target: T2, SAG101-nVenus (Arabidopsis) (UniProt Q4F883); test: split reporter
T2 sequence: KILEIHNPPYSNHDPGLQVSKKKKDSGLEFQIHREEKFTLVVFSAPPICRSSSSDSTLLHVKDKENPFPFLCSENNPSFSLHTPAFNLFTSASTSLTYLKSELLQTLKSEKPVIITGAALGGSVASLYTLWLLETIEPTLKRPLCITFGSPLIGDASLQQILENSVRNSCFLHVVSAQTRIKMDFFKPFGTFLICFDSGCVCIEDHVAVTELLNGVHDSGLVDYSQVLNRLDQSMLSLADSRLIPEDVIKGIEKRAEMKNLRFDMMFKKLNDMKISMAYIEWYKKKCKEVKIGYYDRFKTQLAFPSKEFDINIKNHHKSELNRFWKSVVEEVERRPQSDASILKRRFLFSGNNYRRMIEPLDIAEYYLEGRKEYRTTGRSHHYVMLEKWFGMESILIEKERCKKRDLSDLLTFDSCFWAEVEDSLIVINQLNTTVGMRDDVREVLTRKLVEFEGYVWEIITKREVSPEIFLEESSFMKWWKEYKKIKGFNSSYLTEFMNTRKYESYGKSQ

[3] = target: T1, AtEDS1-nVenus (Arabidopsis); test: condition: only cell-surface receptor activation without effector delivery
[4] = target: NRG1.2-FLAG (Arabidopsis); test: co-IP
[5] = target: NRG1.2-FLAG (Arabidopsis); test: co-IP + native gel or EMSA
[6] = target: NRG1.2-FLAG (Arabidopsis); test: co-IP; remark: listed apart in the source
[7] = target: AtNRG1.2^EEAA-FLAG (Arabidopsis); test: co-IP
[8] = target: AtNRG1.2^EEAA-FLAG (Arabidopsis); test: condition: only co-expressed with RBA1 E86A in place of RBA1

B1: EDS1-V5 (protein, UniProt Q9XF23 1-623)
chain: T1 sequence
binding [4]: binds | binding [5]: binds | binding [6]: binds weakly

B2: AtEDS1-V5 (protein, UniProt Q9XF23 1-623)
chain: T1 sequence
binding [7]: binds | binding [8]: no binding

B3: AtSAG101-Myc (protein, UniProt Q4F883 28-537)
chain: T2 sequence
binding [7]: binds | binding [8]: no binding

The remaining lines, values ahead:

binding [1]: binds
Molecule: AtNRG1.1^EEAA-cCFP (Arabidopsis)

binding [2]: binds
Molecule: NRG1.1-cCFP (Arabidopsis)

binding [3]: no binding | binding [1]: binds
Molecule: AtNRG1.1-cCFP (Arabidopsis)

No constants are given. Whether binding was seen depends on the method and setting. Binding seen in cells or lysates may run through a third protein. For some assays here: Binding can be weak; no strength is given. For some assays here: Where a sequence is shown, tags or fusion partners need not be part of it. Each block holds one molecule with its values, some of them ahead of it.
